From PubChem BioAssay AID590 (National Center for Advancing Translational Sciences (NCATS), 2007)
Screen size: about 59,000 compounds; about 6,500 (11%) were called active. Inconclusive means that the source gave no clear call. Such entries were picked first, then a sample of the others. No stated cut-off is given here; in the data, active means max dye-equivalent concentration above about 10 nM; inconclusive means mostly about 1.1 nM to 9.6 nM; inactive means weaker than that.

Experiment: qHTS Assay for Spectroscopic Profiling in A350 Spectral Region
Settings: Compound autofluorescence, 340/450 nm, Alexa 350 dye-equivalents; hits give high values

SMILES	max dye-equivalent concentration
Cc1ccc(-n2ncc3c(=O)n(CC(=O)N4CCCc5ccccc54)cnc32)cc1C	inactive
O=C(O)CCNS(=O)(=O)c1ccccc1	inconclusive: 8.5 nM
Cc1ccccc1-c1nc(-n2ccnc2)c2ccccc2n1	inactive
O=S1(=O)CCN(Cc2ccccn2)CC1	inactive
COc1ccccc1-c1ccc2ncnc(NC3CC3)c2c1	inactive
O=c1[nH]c2ccccc2n1C1=CCCC1	inconclusive: 1.8 nM
O=C(CSc1ncn[nH]1)Nc1ccc(Br)cc1F	inconclusive: 1.2 nM
CN(C)C(=O)COn1c(SCC(=O)N(C)C)nc2ccccc2c1=O	inconclusive: 4.6 nM
C=CCn1cnc2c(c1=O)c1nc3ccccc3nc1n2/N=C/c1cccc(OC)c1OC	active: 37 nM
CCOC(=O)N1CCC(NC(=O)CS(=O)(=O)Cc2nc(-c3cccc(OC)c3)oc2C)CC1	inactive
O=C(COc1nncc2ccccc12)NCCC1=CCCCC1	inconclusive: 1.1 nM
N#CCSc1nc2c(cc1C#N)CCCCCC2	inconclusive: 6.6 nM
Cc1ccc(NC(=O)COC(=O)c2ccc3c(c2)NC(=O)C2CCCN32)cc1C (stereo not drawn)	inconclusive: 5.6 nM
Clc1ccc(SCCn2cncn2)cc1	inconclusive: 1.4 nM
Nc1nc2n(n1)C(c1cccs1)CC(c1ccc(F)cc1)N2 (stereo not drawn)	inconclusive: 5 nM
N#CCCN(C1CCCCC1)S(=O)(=O)CCOc1ccccc1	inactive
COc1cc(-c2nnc(-c3ccncc3)o2)ccc1OCc1ccccc1	inconclusive: 7.1 nM
N#CC(c1nc2ccccc2nc1N1CCCC1)S(=O)(=O)c1cccs1 (stereo not drawn)	active: 270 nM
CCOCCCn1c(SCC(=O)Nc2ccc(C(N)=O)cc2)nc2ccccc2c1=O	inactive
CCC(c1nnnn1Cc1cccs1)N1CCN(c2nc3ccccc3s2)CC1 (stereo not drawn)	inconclusive: 7.5 nM
O=C(O)CCC1COc2ccccc2O1 (stereo not drawn)	inactive
COc1cc(C(=S)N2CCCC2)ccc1O	inconclusive: 1.4 nM
COCCn1c(=O)cnc2cnc(OCc3ccccc3)nc21	inactive
O=C(CSc1nnc(-c2ccncc2)n1C1CCCCC1)Nc1ccccc1	inactive

SMILES	max dye-equivalent concentration
CCc1ccc2[nH]c(=O)c(C(c3nnnn3CC3CCCO3)N3CCN4CCCC4C3)cc2c1 (stereo not drawn)	active: 37 nM
Cc1noc(NS(=O)(=O)c2ccc(N/C=C/C(=O)c3ccc4c(c3)OCO4)cc2)c1C	active: 27 nM
FC(F)(F)c1nc2nncn2c2c1CCCCC2	active: 160 nM
CCOC(=O)N1CCN(c2cc(=O)n(-c3ccc(OCC)cc3)c(=O)[nH]2)CC1	inconclusive: 1.2 nM
CCOc1cc(C2C(C(=O)N3CCCCC3)=C(C)NC3=C2C(=O)CC(C)(C)C3)ccc1O (stereo not drawn)	active: 120 nM
CC(C)C(=O)Nc1ccc(NC(=O)c2ccccc2Cl)nc1	inconclusive: 2.1 nM
N=C(N)CCNC(=O)[C@@H]1CCC(N)=N1	inactive
CCOc1cc(NC(=O)C2CC2)c(OCC)cc1NC(=O)c1cccnc1	inconclusive: 2.5 nM
N#Cc1c(N)nc2c(c1-c1ccco1)CCCCC2	active: 81 nM
O=c1c(Cl)c(NCCO)ncn1-c1ccccc1	inactive
CCn1c(Sc2nc(C)nc3scc(-c4cccs4)c23)n[nH]c1=O	inconclusive: 1.2 nM
O=C1CCc2nc3sc4c(c3c(=O)n2N1)CCCC4	inactive
Cc1ccc(S(=O)(=O)N2CCCC(C(=O)NC3=NCCS3)C2)cc1 (stereo not drawn)	inconclusive: 1.1 nM
Nc1cc(C(=O)OCC(=O)NCc2ccco2)ccc1Cl	inconclusive: 3.4 nM
Cc1cccc(N=C(N2CCOCC2)P(=O)(N2CCOCC2)N2CCOCC2)c1	inactive
C[N+](C)(CCCCCC[N+](C)(C)CCCN1C(=O)c2cccc3cccc(c23)C1=O)CCCN1C(=O)c2cccc3cccc(c23)C1=O	active: 260 nM
COc1cccc(-c2ccc3ncnc(NCCNC(C)=O)c3c2)c1	inactive
c1cc2[nH]snc2c2nc(C3CC3)nc12	active: 16 nM
Cc1ccccc1CS(=O)(=O)Cc1ccc(C(=O)NCc2ccccn2)o1	inconclusive: 4.1 nM
Cc1cc(C)n(-c2nc3ccccc3c(=O)n2OC2CCCCC2)n1	inconclusive: 2 nM
COCCNc1nc2c(c(=O)n(Cc3ccc(OC)cc3)c(=O)n2C)n1C	inconclusive: 1.1 nM
C=CCOC(=O)COc1ccc2c(C)c(CC)c(=O)oc2c1	inconclusive: 4 nM
N#Cc1cccc(-c2ccc3ncnc(NCc4cccs4)c3c2)c1	inactive
CC1=C(C(=O)OC2CCCCC2)C(c2ccc(C)o2)C2=C(CC(C)(C)CC2=O)N1 (stereo not drawn)	active: 51 nM

SMILES	max dye-equivalent concentration
Cc1ccc(Cn2ccc(NC(=O)c3cc(-c4ccc5c(c4)OCO5)on3)n2)cc1	inconclusive: 5.4 nM
CCOc1ccccc1N(C(=O)c1ccco1)C(C(=O)NC1CCCC1)c1cccnc1 (stereo not drawn)	inconclusive: 2.3 nM
NC[C@H](O)C1CCCCCCC1	inconclusive: 1.3 nM
COc1ccccc1-c1cc(Nc2ccn[nH]2)ncn1	active: 17 nM
CC(C)NC(=O)c1cc2cc(Br)ccc2oc1=O	inactive
CC(C)OCCCNc1ncnc2c1[nH]c1ccc(F)cc12	inconclusive: 3.1 nM
[N-]=[N+]=CC(=O)COC(=O)c1ccccc1	inactive
CCC(C)NC(=O)CSc1nc2ccc(N3CCOCC3)cc2c(=O)n1CCc1ccccc1 (stereo not drawn)	active: 12 nM
c1coc(-c2nc3nc4ccccc4nc3n2-c2ccc3c(c2)OCCO3)c1	inconclusive: 7.4 nM
CCC12CN3CC(CC)(CN(C1)C31C(=O)N(C)c3ccc(C)cc31)C2=O (stereo not drawn)	inconclusive: 1.5 nM
COCCCNc1nc2c(c(=O)[nH]c(=O)n2C)n1CC(O)COc1cccc(C)c1 (stereo not drawn)	inconclusive: 2.2 nM
CCOc1cc(CC(=O)N[C@@H](CC(C)C)c2ccccc2N2CCCCC2)ccc1C(=O)O	active: 19 nM
CCc1nnc(NC(=O)CCC(=O)NC2CCCCC2)s1	inconclusive: 1.2 nM
COc1ccc(NC(=O)C(C)Oc2ccc(/C(C)=N\O)cc2)cc1 (stereo not drawn)	inconclusive: 1.4 nM
CCOc1cccc2cc(-c3nnc(-c4ccccc4)o3)c(=O)oc12	active: 26 nM
COc1cc(NC(=O)C(C)C)ccc1NC(=O)c1ccco1	inconclusive: 6.5 nM
Cc1nnc(NC(=O)Oc2ccccc2)s1	inconclusive: 2.4 nM
CCOC(=O)c1ccc(N2C(=O)c3n[nH]c(C)c3C2c2cccnc2)cc1 (stereo not drawn)	inconclusive: 3.1 nM
Cc1cc2cc(CCNC(=O)C(C)C)c(=O)[nH]c2cc1C	inconclusive: 1.9 nM
OC(CNCC(c1ccco1)N1CCCCC1)c1ccccc1 (stereo not drawn)	inconclusive: 1.4 nM
O=C1CC(N2CCOCC2)C(=O)N1Cc1ccc(N2CCCC2=O)cc1 (stereo not drawn)	inconclusive: 2.2 nM
C[N+](C)(CCCOc1ccccc1)c1ccccc1	inconclusive: 1.4 nM
Cc1cc2nc(SCC(=O)O)nc(C)c2cc1C	inconclusive: 9 nM
CC(C)CCNC(=O)CN(Cc1ccc2c(c1)OCO2)C(=O)CCC(=O)Nc1ccccn1	inactive

Some of the entries above, reformatted:

| SMILES | max dye-equivalent concentration |
| --- | --- |
| CC(C)C(=O)Nc1ccc(NC(=O)c2ccccc2Cl)nc1 | inconclusive: 2.1 nM |
| N=C(N)CCNC(=O)[C@@H]1CCC(N)=N1 | inactive |

Following part.

SMILES	max dye-equivalent concentration
CCOC(=O)CSc1nc2sc3c(c2c(=O)[nH]1)CC(C)(C)OC3	inconclusive: 2.3 nM
CCC(C)C(=O)Nc1nnc(-c2cccs2)s1 (stereo not drawn)	active: 10 nM
COc1cc(C(N)=O)cc(Br)c1OC	inconclusive: 1.7 nM
CCn1c(Cc2ccc(OC)cc2)nnc1SCC(=O)NC1CCCCC1	inconclusive: 2.3 nM
O=C(O)CCNc1ncnc2nc[nH]c12	inactive
O=C(CN1C(=O)NC2(CCCC2)C1=O)Nc1cccc(-c2nnc3n2CCCCC3)c1	inconclusive: 1.6 nM
O=c1c(-c2ccc(Cl)cc2)nc2cnc(N3CCNCC3)nc2n1Cc1ccc(F)cc1	active: 33 nM
CCOc1ccccc1CNC(=O)CCN1C(=O)COc2ccccc21	active: 20 nM
CC(=O)OCC(=O)[C@@]1(O)[C@H](C)C[C@H]2[C@@H]3CCC4=CC(=O)C=C[C@]4(C)[C@@]3(F)[C@@H](O)C[C@@]21C	inactive
O=c1c2ccccc2nc(-c2ccccc2)n1CCCN1CCOCC1	inconclusive: 3.5 nM
COc1ccc(N2C(N)=C(C#N)C(c3cccnc3)C3=C2CC(C)(C)CC3=O)cc1 (stereo not drawn)	inconclusive: 5.1 nM
CCN(CC)c1ccc(C2C(C(=O)OC)=C(C)NC(C)=C2C(=O)OC)cc1	active: 14 nM
CCOC(=O)C1CCCN(C2CC(=O)N(c3cccc(C(F)(F)F)c3)C2=O)C1 (stereo not drawn)	inconclusive: 1.3 nM
CCNc1cc(=O)n(C)c(=O)n1C	inactive
c1ccc2c[n+](CCCC[n+]3ccc4ccccc4c3)ccc2c1	inactive
CCOC(=O)Cn1nnnc1CN(Cc1ccc(OC)cc1)Cc1cc2cc(C)ccc2[nH]c1=O	inconclusive: 2.7 nM
N#CCCn1c(=O)c(-c2cccs2)nc2cnc(N3CCNCC3)nc21	active: 110 nM
O=C(NCC1CCCO1)C1CCCCN1S(=O)(=O)c1ccc(F)cc1 (stereo not drawn)	inconclusive: 2.2 nM
c1ccc(CCC2=NCCn3cccc32)cc1	inconclusive: 1.5 nM
O=C(O)CCCCCn1c(SCC(=O)N2CCCC2)nc2ccsc2c1=O	inconclusive: 1.2 nM
O=C(Nc1nc(-c2cccs2)cs1)c1ccc(S(=O)(=O)N2CCCC2)cc1	active: 39 nM

Retrieved by compound from above:
SMILES	max dye-equivalent concentration
COc1cc(C(N)=O)cc(Br)c1OC	inconclusive: 1.7 nM
CCOC(=O)Cn1nnnc1CN(Cc1ccc(OC)cc1)Cc1cc2cc(C)ccc2[nH]c1=O	inconclusive: 2.7 nM
CCOC(=O)CSc1nc2sc3c(c2c(=O)[nH]1)CC(C)(C)OC3	inconclusive: 2.3 nM
O=c1c(-c2ccc(Cl)cc2)nc2cnc(N3CCNCC3)nc2n1Cc1ccc(F)cc1	active: 33 nM
c1ccc2c[n+](CCCC[n+]3ccc4ccccc4c3)ccc2c1	inactive
